Measured data: PubChem BioAssay AID1259308 (NCATS, 2017)
Shown is an unselected part of about 59,000 deposited reagents. Over the whole deposit, about 1,510 (2.6%) were called active. 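Calls use total luciferase alone and ignore viability, so some active siRNAs may act by altering cell number.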 Reagents against one gene are numbered here.

Purpose: 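Genes whose loss raises luciferase production in HEK293 cells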 (primary screen)
System: human HEK293 embryonic kidney cells stably expressing firefly luciferase (HEK-CMV-Luc2-Hygro)
Reagent: single siRNA against human genes, 0.8 pmol siRNA per well
Timing: 72 h
Detection: 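Reporter luminescence and viable-cell signal on separate replicate plates, given as percent of non-targeting control and median/MAD z-scores, plus per-cell luciferase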
Direction: total luciferase, z-score and total luciferase, % of control: higher = more reporter protein produced; luciferase per cell, z-score: higher = more reporter output per viable cell; viable cells, % of control: higher = more viable cells
Hit rule: 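An siRNA counts as active if its total luciferase robust z-score exceeds 3; genes with two or more such siRNAs out of three were retested with fresh siRNAs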
Calls: active = raised luciferase; inactive = no rise

| target | siRNA no. | total luciferase, z-score | total luciferase, % of control | luciferase per cell, z-score | viable cells, % of control | call |
| --- | --- | --- | --- | --- | --- | --- |
| ALMS1 (ALMS1 centrosome and basal body associated protein) | 1 | -0.102 | 79.9 | 0.132 | 86.2 | inactive |
| ALMS1 (ALMS1 centrosome and basal body associated protein) | 2 | 5.46 | 190 | 4.87 | 59 | active |
| ALMS1 (ALMS1 centrosome and basal body associated protein) | 3 | -0.135 | 79.2 | -0.602 | 104 | inactive |
| UQCRC2 (ubiquinol-cytochrome c reductase core protein 2) | 1 | 0.694 | 95.7 | 0.038 | 106 | inactive |
| UQCRC2 (ubiquinol-cytochrome c reductase core protein 2) | 2 | 1.88 | 119 | 1.27 | 95.5 | inactive |
| UQCRC2 (ubiquinol-cytochrome c reductase core protein 2) | 3 | -0.335 | 75.2 | -0.167 | 87.8 | inactive |
| PFDN1 (prefoldin subunit 1) | 1 | 0.384 | 89.5 | 2.05 | 58.3 | inactive |
| PFDN1 (prefoldin subunit 1) | 2 | -0.459 | 72.8 | -0.387 | 90 | inactive |
| PFDN1 (prefoldin subunit 1) | 3 | -0.0927 | 80 | -0.0479 | 90.6 | inactive |
| STAP2 (signal transducing adaptor family member 2) | 1 | -0.199 | 77.9 | -0.32 | 94.7 | inactive |
| STAP2 (signal transducing adaptor family member 2) | 2 | 0.213 | 86.1 | 0.0702 | 94.5 | inactive |
| STAP2 (signal transducing adaptor family member 2) | 3 | 0.377 | 89.4 | 0.446 | 88.8 | inactive |
| TMEM161B (transmembrane protein 161B) | 1 | 0.167 | 85.2 | 0.66 | 80 | inactive |
| TMEM161B (transmembrane protein 161B) | 2 | -1.19 | 58.3 | -1.26 | 90.7 | inactive |
| TMEM161B (transmembrane protein 161B) | 3 | 5.58 | 193 | 3.71 | 81.1 | active |
| RPSA (ribosomal protein SA) | 1 | 1.16 | 105 | 0.368 | 106 | inactive |
| RPSA (ribosomal protein SA) | 2 | -0.304 | 75.8 | -1.23 | 117 | inactive |
| RPSA (ribosomal protein SA) | 3 | 0.309 | 88 | 0.484 | 86.6 | inactive |
| DYNC1I2 (dynein cytoplasmic 1 intermediate chain 2) | 1 | -1.22 | 57.6 | -1.92 | 107 | inactive |
| DYNC1I2 (dynein cytoplasmic 1 intermediate chain 2) | 2 | 0.851 | 98.8 | 0.815 | 89.1 | inactive |
| DYNC1I2 (dynein cytoplasmic 1 intermediate chain 2) | 3 | -0.191 | 78.1 | -0.823 | 108 | inactive |
| C3orf80 (chromosome 3 open reading frame 80) | 1 | 3.12 | 144 | 2.84 | 76.2 | active |
| C3orf80 (chromosome 3 open reading frame 80) | 2 | -1.91 | 44 | -1.49 | 72.9 | inactive |
| C3orf80 (chromosome 3 open reading frame 80) | 3 | 0.735 | 96.5 | 0.999 | 82.9 | inactive |

2 of these entries, set out differently:
UQCRC2 (ubiquinol-cytochrome c reductase core protein 2) #3
- total luciferase, z-score: -0.335
- total luciferase, % of control: 75.2
- luciferase per cell, z-score: -0.167
- viable cells, % of control: 87.8
- call: inactive

PFDN1 (prefoldin subunit 1) #1
- total luciferase, z-score: 0.384
- total luciferase, % of control: 89.5
- luciferase per cell, z-score: 2.05
- viable cells, % of control: 58.3
- call: inactive
